Source: PubChem BioAssay AID1347075 (National Center for Advancing Translational Sciences (NCATS), 2019)
The campaign covered roughly 400,000 compounds. About 5,500 (1.4%) were called active. The inconclusive results got no clear call from the source; some entries with a clear call stand among them for comparison. Calls come from the whole dose curve; as a rule, active = well fitted cell-killing curve with a large enough effect; inconclusive = small, poorly fitted or top-dose-only effect, or effect the other way; inactive = flat fitted curve, though single readings scatter. Where the call is inconclusive, the potency comes from a doubtful curve fit.

Assay: qHTS assay for MDR1-selective chemotherapeutics: Primary screen using the parental adenocarcinoma cell KB-3-1; note: nearly all actives have a fitted effect of over 60% in size
Settings: KB-3-1 viability, CellTiter-Glo ATP luminescence, 72 h; series mostly up to 46.1 µM
Procedure, shortened: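 KB-3-1 cells, DMEM (no phenol red) + 10% FBS; compound by pin transfer, 72 h, 37 °C. Readout: CellTiter-Glo luminescence after 10 min. Data normalized, curve-fitted.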
Potency is the fitted concentration of half-maximal effect.

Compound | Potency
COc1cc(C(=O)OCC(=O)c2ccccc2)cc2c1OCCO2 | inactive
COc1ccc(Br)cc1/C=C/c1ccc2cccc(O)c2n1 | inconclusive: 23.1 µM [cytotoxic, single point]
Cn1c(=O)n(C)c2cc(NC(=O)c3ccc(F)cc3)ccc21 | inconclusive: 20.6 µM [cytotoxic, single point]
CC1CC(NC(=O)c2cc3c(=O)n4ccccc4nc3n2C)CC(C)(C)C1 (configuration not stated) | inactive
CCn1c(=O)n(CC)c2cc(N3CCCC3)c(NC(=O)c3cc(Cl)ccc3OC)cc21 | inconclusive: 29.1 µM [cytotoxic, single point]
CCOc1ccc2nc(N3CCCC(C(=O)Nc4ccc(OC)cc4)C3)sc2c1 (configuration not stated) | inconclusive: 8.2 µM [cytotoxic, partial curve]
N=c1ccn(Cc2c(Cl)cccc2Cl)cc1 | inconclusive: 4.11 µM [cytotoxic, full curve, poor fit]
Cc1[nH][nH]c(=O)c1N=Nc1ccccc1Cl | inconclusive: 29.1 µM [cytotoxic, single point]
COc1ccc(NC(=O)N2CCC(c3nc4ccccc4[nH]3)CC2)cc1 | inactive
C=CSc1sc(Cl)c(N(CC)CC)c1[N+](=O)[O-] | inactive
Cc1nn(C)c(C)c1S(=O)(=O)N1CCC(CO)(Cc2ccc(Cl)cc2)CC1 | inconclusive: 23.1 µM [cytotoxic, single point]
Cc1ccc(NC(=O)/C(=C/c2cccs2)NC(=O)c2ccco2)cc1 | inactive
Cc1cc(C(=O)COc2ccccc2Cl)c(C)n1-c1ccc2c(c1)OCO2 | active: 18.4 µM
CCOc1ccc(C2Nc3cccc4cccc(c34)N2)cc1OC | inactive
Cn1c2ccccc2c2cc(C(=O)NNC(=O)CCl)sc21 | inconclusive: 29.1 µM [cytotoxic, single point]
C/C(=N\NC(=O)c1nnn(-c2nonc2N)c1CN1CCCCC1)c1ccccc1O | inconclusive: 18.4 µM [cytotoxic, single point]
CC(=O)Nc1ccc(NC(=O)Cn2cnc(S(=O)(=O)N3CCOCC3)c2)cc1 | inactive
C=CCOC(=O)C1=C(C)NC(SCC(=O)N(CC)CC)=C(C#N)C1c1ccccc1 (configuration not stated) | inconclusive: 32.6 µM [cytotoxic, single point]
COC(=O)NC1CSCC1OC(=O)CCN1C(=O)c2ccccc2C1=O (configuration not stated) | inactive
COc1ccc(NC(=O)c2cc(-c3ccccc3)on2)cc1 | inactive
COc1ccc(C)cc1NC(=O)CN(C)S(=O)(=O)c1cccs1 | inactive
CCCOc1ccc(NC(=O)CC2C(=O)N(CC)C(=S)N2CCCN2CCN(Cc3ccccc3)CC2)cc1 (configuration not stated) | inconclusive: 20.6 µM [cytotoxic, single point]

Arranged by molecular weight (falling): part of the list above
Compound | Potency
COc1ccc(Br)cc1/C=C/c1ccc2cccc(O)c2n1 | inconclusive: 23.1 µM [cytotoxic, single point]
Cc1ccc(NC(=O)/C(=C/c2cccs2)NC(=O)c2ccco2)cc1 | inactive
Cn1c(=O)n(C)c2cc(NC(=O)c3ccc(F)cc3)ccc21 | inconclusive: 20.6 µM [cytotoxic, single point]
